The list shows a part of the results. Shown are side measurements of this screen, not its main read-out; they come without a call. The list favours compounds with an active or inconclusive main result. Words in brackets tell the shape of the fitted curve; partial curves, single points and poor fits give uncertain potencies.
Assay: qHTS Assay for Lipid Storage Modulators in Drosophila S3 Cells;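 for cell number change: cells counted by Cell Tracker Red CMTPX staining in the red channel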
Details: BODIPY lipid droplet fluorescence, 18-24 h; for cell number change: measured here: cell count max response, cells fed with added oleic acid
Summary of the method: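 Laser-scanning cytometry quantifies lipid droplet accumulation (500–530 nm total intensity; droplet/cell object ratio) in oleic acid-fed (400 uM added) Drosophila S3 cells treated with a concentration series. 20 uM Triacsin C defined 100% inhibition.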

[1] = measured here: cell number channel AC50, cells fed with added oleic acid
[2] = measured here: lipid fluorescence (Fed channel) AC50, cells fed with added oleic acid

| Structure (SMILES) | cell number change | AC50 [1] | AC50 [2] |
| --- | --- | --- | --- |
| O=S(=O)(c1cc(C(F)(F)F)ccc1Cl)N1CCN(c2ccccn2)CC1 | 40.2% | 4.61 µM [rising, full curve] |  |
| Cc1nc(NC(=O)c2ccccc2)sc1-c1csc(Nc2cccc(F)c2)n1 | -67.8% | 8.2 µM [falling, partial curve] |  |
| Cc1ccc(/C(O)=C2\C(=O)C(=O)N(C)C2c2ccc([N+](=O)[O-])cc2)cc1 (centres undefined) | 23.7% |  |  |
| O=C(C1CCN(S(=O)(=O)c2cccc3cccnc23)CC1)N1CCn2c1nc1ccccc12 | -11.6% |  | 8.2 µM [rising, partial curve] |
| O=[N+]([O-])c1cccc(S(=O)(=O)c2ccc(NCCO)c([N+](=O)[O-])c2)c1 | 11.3% | 0.13 µM [falling, full curve, poor fit] | 0.13 µM [falling, full curve, poor fit] |
| CC(=O)c1cn(-c2ccc(Cl)cc2)c(=O)n(Cc2ccc(F)cc2)c1=O | 3.69% |  |  |
| N#Cc1ccc(OCC(=O)N/N=C(\CCC(=O)O)c2cccs2)cc1 | -9.25% |  | 6.51 µM [falling, single point] |
| O=C(NC(Nc1nc2ccc([N+](=O)[O-])cc2s1)(C(F)(F)F)C(F)(F)F)c1ccccc1 |  | 5.8 µM [falling, partial curve] | 6.51 µM [falling, single point] |
| Nc1c(-c2ccccc2)c(CSc2nc3ccccc3[nH]2)nn1-c1cccc(Cl)c1 |  | 2.06 µM [rising, partial curve, poor fit] | 0.103 µM [falling, full curve, poor fit] |
| Cc1ccc(-c2nn(CC(=O)NCC3CCCO3)c(=O)c3ccccc23)cc1 (centres undefined) | 17.6% |  |  |
| Cc1cc(C)n2nnnc2c1C#N | 3.76% | 0.13 µM [falling, full curve, poor fit] |  |
| N#Cc1cc2c(=O)n3ccccc3nc2n(Cc2ccco2)c1=NC(=O)c1ccco1 | 2.98% |  | 0.231 µM [falling, full curve, poor fit] |
| Cc1nc2nc(C)n(-c3ccccc3)c2s1 | 25% |  | 29.1 µM [rising, single point] |
| CCCC(c1nnnn1C(C)(C)CC)N1CCN(C(=O)c2ccco2)CC1 (centres undefined) | 19.2% |  | 1.16 µM [falling, single point] |
| Cc1cccc(-c2noc(CN(C(=O)c3c(-c4ccccc4Cl)noc3C)C(C)C)n2)c1 | -0.327% |  | 0.103 µM [rising, single point] |
| CCOc1ccc(NC(=O)CSc2nnc(CCNC(=O)c3ccc(OC)cc3)n2C)cc1 | -13.6% |  |  |
| COCCn1c(=NC(=O)c2sc3ccccc3c2Cl)sc2cc(S(N)(=O)=O)ccc21 | 7.87% |  | 1.84 µM [rising, partial curve] |
| O=C1c2ccccc2NC2CCCCC12 (centres undefined) | -25.6% |  | 4.11 µM [rising, single point] |
| COc1ccc2oc(C(=O)Nc3nc4ccc(S(C)(=O)=O)cc4s3)c(C)c2c1 | -11.2% |  |  |
| CCOc1ncccc1C(=O)OCC(=O)c1ccc(F)cc1 |  | 6.51 µM [rising, single point] | 5.17 µM [rising, partial curve] |

| Structure (SMILES) | cell number change | AC50 [1] | AC50 [2] |
| --- | --- | --- | --- |
| CCCSc1nnc2n(-c3ccccc3OC)c(=O)c3c4c(sc3n12)CCC4 | 25.1% | 0.146 µM [falling, full curve, poor fit] | 6.51 µM [rising, single point] |
| N#CC1=C(N)N(c2ccccc2)C(c2ccccc2)C1(C#N)C#N (centres undefined) | -24.1% |  | 0.13 µM [falling, full curve, poor fit] |
| O=C1Nc2ccccc2C(O)(C(=O)NCc2ccco2)N1c1ccccc1 (centres undefined) | -31.2% | 0.0206 µM [falling, full curve, poor fit] | 20.6 µM [falling, single point] |
| CCCc1cc(=O)oc2cc(OCC(=O)OC)cc(OCC(=O)OC)c12 | 19.8% |  |  |
| O/N=C(\c1ccc(Cl)cc1)c1cc2ccccc2o1 | -84.2% | 29.1 µM [falling, partial curve] | 1.64 µM [falling, full curve] |
| Nn1cc(-c2ccccc2)nc1SCC(=O)Nc1ccc2c(c1)OCO2 | -15.2% |  | 13 µM [falling, single point] |
| O=C(CCCN1C(=O)/C(=C/c2ccc3c(c2)OCO3)SC1=S)Nc1cccc(C(=O)O)c1 | 2.16% |  | 9.2 µM [falling, partial curve, poor fit] |
| COc1ccc(OC)c(-c2nnc(SCC(=O)N3CCCC3)o2)c1 | -8.73% |  | 3.66 µM [rising, partial curve] |
| O=C(CNCc1ccco1)Nc1ccc(N2CCCCCC2)cc1 | 3.35% |  | 18.4 µM [rising, single point] |
| CCc1ccc(-c2nc(CS(=O)CC(=O)NC3CCCCCC3)c(C)o2)cc1 (centres undefined) | 10.6% |  | 0.651 µM [rising, full curve, poor fit] |
| CCC(Nc1ccc(OC)cc1)C(=O)N/N=C/c1ccc([N+](=O)[O-])cc1 (centres undefined) | 25% |  | 16.4 µM [rising, single point] |
| Cn1c(/C=C/c2ccc(Cl)cc2Cl)c([N+](=O)[O-])c(=O)n(C)c1=O | -37.8% | 0.00651 µM [falling, full curve, poor fit] |  |
| O=C(COC(=O)c1ccccc1[N+](=O)[O-])c1ccc(C2CCCCC2)cc1 | -41.1% | 7.31 µM [falling, partial curve] |  |
| COc1ccc(N2CCN(C(=O)C3CCN(S(=O)(=O)c4c(C)noc4/C=C/N(C)C)CC3)CC2)cc1 | -15.6% |  | 16.4 µM [rising, partial curve] |
| COc1ccc(Cl)cc1S(=O)(=O)NC(C)C(=O)NCc1ccc2c(c1)OCO2 (centres undefined) | 18.3% |  |  |
| CC1CN(C2CCN(S(=O)(=O)c3ccc(F)cc3)CC2)CC(C)O1 (centres undefined) | 9.81% |  | 1.03 µM [falling, full curve] |
| COc1ccccc1C(=O)NCCC(=O)N1CCN(S(=O)(=O)c2ccccc2C(F)(F)F)CC1 |  | 4.11 µM [falling, single point] | 6.51 µM [rising, partial curve, poor fit] |
| Oc1c(CN2CCCCC2)cc(COCc2ccccc2)c2cccnc12 | -22.5% |  | 6.51 µM [falling, partial curve] |
| Cc1ccc(/C=N/NS(=O)(=O)c2ccc([N+](=O)[O-])cc2)o1 | 21.9% |  | 16.4 µM [rising, single point] |
| Cc1ccc2cn[nH]c2c1NC(=S)NC(=O)c1ccccc1 | 15.5% |  | 3.66 µM [falling, single point] |

Filtered by structure: those above with a COOH group

| Structure (SMILES) | cell number change | AC50 [1] | AC50 [2] |
| --- | --- | --- | --- |
| N#Cc1ccc(OCC(=O)N/N=C(\CCC(=O)O)c2cccs2)cc1 | -9.25% |  | 6.51 µM [falling, single point] |
| O=C(CCCN1C(=O)/C(=C/c2ccc3c(c2)OCO3)SC1=S)Nc1cccc(C(=O)O)c1 | 2.16% |  | 9.2 µM [falling, partial curve, poor fit] |

Taken from the entries so far for reference:

| Structure (SMILES) | cell number change | AC50 [1] | AC50 [2] |
| --- | --- | --- | --- |
| Cc1ccc(-c2nn(CC(=O)NCC3CCCO3)c(=O)c3ccccc23)cc1 (centres undefined) | 17.6% |  |  |
| Cc1cc(C)n2nnnc2c1C#N | 3.76% | 0.13 µM [falling, full curve, poor fit] |  |

Remaining list, next part.

| Structure (SMILES) | cell number change | AC50 [1] | AC50 [2] |
| --- | --- | --- | --- |
| O=c1c(Cc2ccc(Cl)cc2Cl)c(O)ccn1Cc1ccc(Cl)cc1 | -78.6% | 29.1 µM [falling, single point] | 23.1 µM [falling, single point] |
| CC(=O)Nc1cccc(NC(=O)CSc2nc(=O)n(CCN3CCOCC3)c3c2CCCC3)c1 | -4.4% |  |  |
| COc1ccc(CN2C(=O)CCC2(C)C(=O)NC2CCCCC2)c(OC)c1 (centres undefined) | 0.284% |  | 29.1 µM [falling, single point] |
| CCc1ccc(NC(=O)C(=O)NNC(=O)c2cccc(OC)c2)cc1 | 38.3% | 25.9 µM [rising, single point] |  |
| CCC1(c2ccc(F)cc2)NC(=O)N(CC(=O)Nc2cccnc2Cl)C1=O (centres undefined) | 36.5% | 29.1 µM [rising, single point] |  |
| Cc1cccc(N2CCN(C(=O)c3ccc(NS(=O)(=O)c4c(C)noc4C)cc3)CC2)c1C | 45.6% | 20.6 µM [rising, single point] | 6.51 µM [falling, single point] |
| O=S1(=O)CCN(OCc2ccc(Cl)cc2)CC1 | -27.2% |  |  |
| O=C(COc1ccc2c(c1)CCC2)NCc1ccccc1 | -6.19% |  | 0.58 µM [falling, full curve, poor fit] |
| CC(=O)N1CCN(C(=O)CC2OC(=O)c3ccccc32)CC1 (centres undefined) | -15.2% |  | 20.6 µM [falling, single point] |
| CCN(CC)C(=O)CC(c1cc(OC)c(OC)c(OC)c1)c1c(OC)cc(OC)c2c(-c3ccccc3)cc(=O)oc12 (centres undefined) | 12.4% | 2.31 µM [rising, partial curve] |  |
| COc1ccc(CCNCC(O)COc2ccc(Cl)cc2)cc1OC (centres undefined) | 10.4% |  | 18.4 µM [rising, partial curve] |
| CCOCCCNC(=O)C1CC(=O)N(CCc2ccccc2)C1 (centres undefined) | 20.6% |  |  |
| CCOc1ccc(NS(=O)(=O)c2ccc(C(=O)NCc3ccncc3)cc2)cc1 | 48% | 7.31 µM [rising, partial curve] | 7.31 µM [rising, partial curve] |
| CN1CCCN(C(=O)c2cccc(Br)c2)CC1 | 4.4% |  | 29.1 µM [rising, single point] |
| COc1ccc2nc(NC(=O)c3ccc([N+](=O)[O-])o3)sc2c1 | -18.4% |  | 6.51 µM [falling, single point] |
| COC(=O)c1c(NC(=O)C2CCCCC2C(=O)O)sc2c1CCCCC2 (centres undefined) | 32.2% | 1.84 µM [rising, partial curve, poor fit] |  |
| O=C(Nc1ccc([N+](=O)[O-])cc1)c1ccc(S(=O)(=O)N2CCCC2)cc1 | 162% |  | 29.1 µM [falling, single point] |
| Cc1ccc(CN(C)CC(=O)Nc2cccc([N+](=O)[O-])c2)o1 | 6.84% | 7.31 µM [falling, partial curve, poor fit] | 6.51 µM [falling, single point] |
